Results taken from the supplement of paper PMC6078165.
± gives the standard deviation of the averaged measurements. Values are relative to the signal before dosing, not to a vehicle control; the signal also falls without drug.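 Fibroblast labels name human fibroblasts: mostly primary ones from tissues such as uterus (C12385, HUF), lung (H6013), bone (Hs27A), adrenal (HADF) and skin (WS1), plus mammary HMF and breast cancer-associated Hs343T. The cancer cells are basal-like or mesenchymal-like triple-negative breast cancer lines. The paper calls a changed response a hit when it shifts by more than 3x the replicate standard deviation. The tissue of the other fibroblasts is not given here.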

System: BT20
Experiment: relative JC-1 red fluorescence (viability) vs pre-drug, coculture with fibroblast (fraction); higher = more viable cancer cells
Experimental: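 JC-1 labelled TNBC cells cocultured 1:1 (1,500 cells each) with CellTrace Violet stained primary or stromal fibroblasts in 384-well plates in FluoroBrite medium, treated with one of 42 anticancer drugs at 0.1, 1, 10 or 100 uM. JC-1 red fluorescence (mitochondrial integrity in cancer cells only) was read by plate reader every 8 h for 72 h. Values are normalised to each well's pre-drug value. The stock of one drug was tenfold lower, so its dose labels may be too high.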

CCc1c2c(nc3ccc(OC(=O)N4CCC(N5CCCCC5)CC4)cc13)-c1cc3c(c(=O)n1C2)COC(=O)[C@]3(O)CC [Irinotecan]
relative JC-1 red fluorescence
Details | 8 h | 16 h | 24 h | 32 h | 40 h | 48 h | 56 h | 64 h | 72 h
0.1 µM, coculture fibroblast: C12385 | 0.916 ± 0.036 | 0.865 ± 0.011 | 0.8819 ± 0.0032 | 0.8188 ± 0.0062 | 0.77 ± 0.014 | 0.751 ± 0.032 | 0.736 ± 0.025 | 0.723 ± 0.03 | 0.716 ± 0.034
0.1 µM, coculture fibroblast: H6013 | 0.925 ± 0.031 | 0.872 ± 0.011 | 0.85793 ± 0.00062 | 0.8104 ± 0.0049 | 0.7741 ± 0.0068 | 0.76 ± 0.014 | 0.755 ± 0.016 | 0.725 ± 0.021 | 0.704 ± 0.02
0.1 µM, coculture fibroblast: H6019 | 0.829 ± 0.03 | 0.795 ± 0.038 | 0.799 ± 0.043 | 0.737 ± 0.045 | 0.695 ± 0.044 | 0.679 ± 0.04 | 0.654 ± 0.046 | 0.625 ± 0.041 | 0.611 ± 0.036
0.1 µM, coculture fibroblast: H6076 | 0.93 ± 0.044 | 0.9076 ± 0.0012 | 0.862 ± 0.034 | 0.853 ± 0.056 | 0.846 ± 0.065 | 0.838 ± 0.078 | 0.849 ± 0.073 | 0.859 ± 0.091 | 0.855 ± 0.1
0.1 µM, coculture fibroblast: H6231 | 0.913 ± 0.088 | 0.8856 ± 0.0088 | 0.77 ± 0.011 | 0.716 ± 0.027 | 0.667 ± 0.023 | 0.623 ± 0.024 | 0.588 ± 0.034 | 0.569 ± 0.036 | 0.538 ± 0.035
0.1 µM, coculture fibroblast: HADF | 0.925 ± 0.085 | 0.89 ± 0.0075 | 0.834 ± 0.018 | 0.795 ± 0.0093 | 0.746 ± 0.016 | 0.705 ± 0.018 | 0.681 ± 0.03 | 0.66 ± 0.031 | 0.628 ± 0.034
0.1 µM, coculture fibroblast: HCFa | 0.9116 ± 0.0044 | 0.8919 ± 0.0044 | 0.881 ± 0.024 | 0.817 ± 0.024 | 0.776 ± 0.039 | 0.731 ± 0.045 | 0.703 ± 0.039 | 0.68 ± 0.052 | 0.639 ± 0.05
0.1 µM, coculture fibroblast: HCPF | 0.935 ± 0.03 | 0.836 ± 0.044 | 0.807 ± 0.011 | 0.7755 ± 0.0066 | 0.7509 ± 0.0035 | 0.7248 ± 0.0041 | 0.69625 ± 0.00031 | 0.7013 ± 0.0023 | 0.671 ± 0.01
0.1 µM, coculture fibroblast: HHSteC | 0.91 ± 0.049 | 0.881 ± 0.055 | 0.876 ± 0.082 | 0.798 ± 0.092 | 0.77 ± 0.1 | 0.726 ± 0.12 | 0.701 ± 0.12 | 0.676 ± 0.12 | 0.644 ± 0.12
0.1 µM, coculture fibroblast: HMF | 0.9321 ± 0.008 | 0.852 ± 0.015 | 0.78 ± 0.023 | 0.732 ± 0.017 | 0.696 ± 0.015 | 0.661 ± 0.028 | 0.64 ± 0.025 | 0.616 ± 0.017 | 0.594 ± 0.018
0.1 µM, coculture fibroblast: HPFa | 0.93155 ± 0.00092 | 0.841 ± 0.016 | 0.81971 ± 0.00068 | 0.7147 ± 0.0067 | 0.6746 ± 0.0041 | 0.6173 ± 0.0044 | 0.584 ± 0.0092 | 0.547 ± 0.015 | 0.488 ± 0.019
0.1 µM, coculture fibroblast: HUF | 0.908 ± 0.02 | 0.8141 ± 0.0075 | 0.7769 ± 0.0069 | 0.698 ± 0.0087 | 0.6462 ± 0.0045 | 0.6064 ± 0.002 | 0.58 ± 0.0083 | 0.565 ± 0.011 | 0.55793 ± 0.0005
0.1 µM, coculture fibroblast: Hs5 | 0.926 ± 0.05 | 0.883 ± 0.018 | 0.874 ± 0.04 | 0.867 ± 0.081 | 0.867 ± 0.11 | 0.85 ± 0.13 | 0.833 ± 0.11 | 0.803 ± 0.12 | 0.781 ± 0.12
0.1 µM, coculture fibroblast: Hs27A | 0.901 ± 0.021 | 0.87 ± 0.091 | 0.8933 ± 0.0027 | 0.875 ± 0.027 | 0.818 ± 0.0089 | 0.787 ± 0.028 | 0.772 ± 0.017 | 0.746 ± 0.018 | 0.7004 ± 0.0067
0.1 µM, coculture fibroblast: Hs343T | 0.931 ± 0.034 | 0.851 ± 0.0096 | 0.7716 ± 0.0016 | 0.7277 ± 0.0024 | 0.689 ± 0.016 | 0.652 ± 0.022 | 0.616 ± 0.025 | 0.609 ± 0.034 | 0.587 ± 0.031
0.1 µM, coculture fibroblast: WS1 | 0.825 ± 0.023 | 0.772 ± 0.016 | 0.812 ± 0.023 | 0.7575 ± 0.002 | 0.7117 ± 0.0038 | 0.712 ± 0.0099 | 0.7049 ± 0.0067 | 0.703 ± 0.016 | 0.707 ± 0.014
1 µM, coculture fibroblast: C12385 | 0.873 ± 0.043 | 0.8336 ± 0.0015 | 0.844 ± 0.014 | 0.792 ± 0.021 | 0.746 ± 0.024 | 0.724 ± 0.021 | 0.706 ± 0.015 | 0.704 ± 0.014 | 0.6948 ± 0.0064
1 µM, coculture fibroblast: H6013 | 0.911 ± 0.02 | 0.8637 ± 0.0055 | 0.8513 ± 0.0049 | 0.779 ± 0.0082 | 0.7386 ± 0.005 | 0.7262 ± 0.0054 | 0.722 ± 0.0097 | 0.7088 ± 0.0059 | 0.6921 ± 0.0059
1 µM, coculture fibroblast: H6019 | 0.857 ± 0.0084 | 0.811 ± 0.0049 | 0.8094 ± 0.0078 | 0.743 ± 0.019 | 0.71 ± 0.027 | 0.694 ± 0.021 | 0.663 ± 0.03 | 0.639 ± 0.03 | 0.62 ± 0.038
1 µM, coculture fibroblast: H6076 | 0.951 ± 0.032 | 0.887 ± 0.021 | 0.826 ± 0.012 | 0.793 ± 0.011 | 0.786 ± 0.01 | 0.764 ± 0.018 | 0.777 ± 0.024 | 0.776 ± 0.027 | 0.763 ± 0.03
1 µM, coculture fibroblast: H6231 | 0.896 ± 0.1 | 0.856 ± 0.049 | 0.782 ± 0.015 | 0.726 ± 0.0094 | 0.6983 ± 0.0055 | 0.6551 ± 0.0057 | 0.62 ± 0.017 | 0.597 ± 0.027 | 0.573 ± 0.041
1 µM, coculture fibroblast: HADF | 0.9299 ± 0.0015 | 0.8971 ± 0.0027 | 0.876 ± 0.015 | 0.81 ± 0.018 | 0.777 ± 0.024 | 0.749 ± 0.026 | 0.732 ± 0.033 | 0.719 ± 0.028 | 0.698 ± 0.041
1 µM, coculture fibroblast: HCFa | 0.938 ± 0.017 | 0.906 ± 0.052 | 0.888 ± 0.039 | 0.809 ± 0.039 | 0.768 ± 0.035 | 0.734 ± 0.028 | 0.71 ± 0.022 | 0.687 ± 0.017 | 0.647 ± 0.019
1 µM, coculture fibroblast: HCPF | 0.9654 ± 0.0036 | 0.913 ± 0.012 | 0.851 ± 0.021 | 0.8062 ± 0.0075 | 0.773 ± 0.0088 | 0.75 ± 0.013 | 0.729 ± 0.028 | 0.708 ± 0.017 | 0.684 ± 0.016
1 µM, coculture fibroblast: HHSteC | 0.91 ± 0.015 | 0.881 ± 0.016 | 0.877 ± 0.016 | 0.799 ± 0.018 | 0.763 ± 0.024 | 0.73 ± 0.017 | 0.707 ± 0.026 | 0.683 ± 0.021 | 0.648 ± 0.017
1 µM, coculture fibroblast: HMF | 0.773 ± 0.1 | 0.899 ± 0.028 | 0.785 ± 0.05 | 0.71 ± 0.044 | 0.656 ± 0.027 | 0.62 ± 0.038 | 0.58 ± 0.037 | 0.554 ± 0.039 | 0.529 ± 0.048
1 µM, coculture fibroblast: HPFa | 0.909 ± 0.011 | 0.902 ± 0.063 | 0.924 ± 0.11 | 0.833 ± 0.11 | 0.817 ± 0.14 | 0.772 ± 0.13 | 0.757 ± 0.14 | 0.734 ± 0.16 | 0.681 ± 0.15
1 µM, coculture fibroblast: HUF | 0.89 ± 0.013 | 0.78689 ± 0.00043 | 0.7483 ± 0.0054 | 0.65431 ± 0.00013 | 0.60143 ± 3.4e-05 | 0.565 ± 0.0057 | 0.55 ± 0.0091 | 0.54 ± 0.017 | 0.529 ± 0.016
1 µM, coculture fibroblast: Hs5 | 0.841 ± 0.17 | 0.91 ± 0.017 | 0.8374 ± 0.0012 | 0.7782 ± 0.0066 | 0.743 ± 0.009 | 0.7 ± 0.031 | 0.67 ± 0.044 | 0.641 ± 0.054 | 0.597 ± 0.061
1 µM, coculture fibroblast: Hs27A | 0.85 ± 0.17 | 0.945 ± 0.032 | 0.903 ± 0.018 | 0.846 ± 0.0094 | 0.812 ± 0.015 | 0.806 ± 0.027 | 0.788 ± 0.032 | 0.77 ± 0.052 | 0.724 ± 0.055
1 µM, coculture fibroblast: Hs343T | 0.964 ± 0.024 | 0.8534 ± 0.0074 | 0.768 ± 0.0053 | 0.705 ± 0.0078 | 0.655 ± 0.026 | 0.612 ± 0.028 | 0.576 ± 0.045 | 0.558 ± 0.046 | 0.533 ± 0.051
1 µM, coculture fibroblast: WS1 | 0.821 ± 0.013 | 0.757 ± 0.036 | 0.708 ± 0.069 | 0.629 ± 0.059 | 0.567 ± 0.056 | 0.543 ± 0.054 | 0.512 ± 0.066 | 0.484 ± 0.065 | 0.473 ± 0.08
